Among the data in US20220177870A1 are binding values, retold here.

Protein sequences, listed by entry. Tags and fused reporters are not part of them. Lines headed by an entry give the natural chain unless they say otherwise; changes in a name come on top.
UniProt P55899: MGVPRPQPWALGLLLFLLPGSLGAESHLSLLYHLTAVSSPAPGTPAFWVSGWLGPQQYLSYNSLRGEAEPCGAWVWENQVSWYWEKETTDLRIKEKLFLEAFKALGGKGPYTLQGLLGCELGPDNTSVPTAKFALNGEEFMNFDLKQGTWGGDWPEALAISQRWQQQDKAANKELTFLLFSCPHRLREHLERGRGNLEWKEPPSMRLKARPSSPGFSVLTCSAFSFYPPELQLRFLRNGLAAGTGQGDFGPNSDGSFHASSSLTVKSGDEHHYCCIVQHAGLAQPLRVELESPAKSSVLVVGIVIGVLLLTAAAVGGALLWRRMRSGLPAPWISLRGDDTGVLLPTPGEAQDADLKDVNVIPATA

These are yes or no findings as the source states them, for the method shown. Some results given as binding are weak or reduced against the parent protein; the word gives no strength. Sequences can lack the tags named with a protein.

For test [1], the target named is human soluble FCRN protein (human) (UniProt P55899). Nature of the test: BLI (GatorBio), pH 6 and pH 7.
For test [2] the target is unchanged. Nature of the test: BLI (GatorBio), biotinylated FcRn on streptavidin probe, VHO-Fc as analyte, pH 7 and pH 6.

B1: VHO4-Fc (Fc fusion, not shown: a dimerising Fc or GST)
chain: EVQLLESGGGLVQPGGSLRLSCAASGFTFSSYGMSWVRQAPGKGLEWVSAIWSDGSSTYYADSVKGRFTISRDNSKNTLYLQMNSLRAEDTAVYYCARRTWGHQFDYWGQGTLVTVSS
Regarding B1, the binding result in test [1] and in test [2] was “binds” throughout.

B2: VHO3-Fc (Fc fusion, not shown: a dimerising Fc or GST)
chain: EVQLLESGGGLVQPGGSLRLSCAASGFTFSTYWMSWVRQAPGKGLEWVSVISGDGGSTYYADSVKGRFTISRDNSKNTLYLQMNSLRAEDTAVYYCAKWKGAGRGPGALGGLDVWGQGTLVTVSS
Turning to B2, the binding entry in test [1] and in test [2] was “binds” throughout.

B3: VHO5-Fc (Fc fusion, not shown: a dimerising Fc or GST)
chain: EVQLLESGGGLVQPGGSLRLSCAASGFTFSSYWMHWVRQAPGKGLEWVSVINYSGSSTYYADSVKGRFTISRDNSKNTLYLQMNSLRAEDTAVYYCAMGTPGELPLDYWGQGTLVTVSS
With B3, the binding entry in test [1] and in test [2] was “binds” in each case.
